PubChem BioAssay AID1159584 – Peter MacCallum Cancer Centre – 2016

Purpose: 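Genes whose loss is lethal only together with E-cadherin loss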 (primary screen)
System: human MCF10A breast epithelial cells, parental and CDH1-null
Reagent: siRNA against human genes
Read-out: 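ATP luminescence (CellTiter-Glo) viability per line relative to mean mock wells over all plates, and the ratio of CDH1-null to parental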
Scale: CDH1-null / parental viability ratio: higher = CDH1-null cells survive relatively better than parental; CDH1-null viability vs mock: higher = more viable CDH1-null cells
The whole screen tested about 18,000 reagents; below is a part drawn at random. The numbers tell different reagents against one gene apart. Further read-outs or replicates are left out here. Not stated in the record: the amount of reagent, the time to read-out.

Target gene,siRNA no.,CDH1-null / parental viability ratio,CDH1-null viability vs mock (fraction of mock)
TMPRSS11E,1,0.93,0.67
C9,1,1.05,0.84
DDN,1,1.17,0.91
FBXO36,1,0.86,0.55
CPA5,1,1.17,0.98
FLT4,1,0.82,0.46
MSN,1,0.75,0.66
NCOA2,1,1,0.9
APIP,1,1.12,0.92
AMBRA1,1,0.76,0.74
RAB22A,1,0.93,0.94
PTGR3,1,1.14,0.99
PBX1,1,0.84,0.57
DDHD1,1,0.94,0.77
PLOD1,1,1.06,0.67
PRM2,1,1.79,0.7
JPT2,1,1.02,0.66
SAMD15,1,1.06,0.38
KLK11,1,1.48,0.8
DESI1,1,1.17,0.7
ARMCX2,1,0.99,0.83
AKTIP,1,1.1,0.75
CTAGE6,1,1.03,0.38
LZTS2,1,1.04,0.59
OR14I1,1,1.06,0.66
NF2,1,0.97,0.94
ZGRF1,1,0.72,0.36
ZGRF1,2,1.09,0.99
FRMD1,1,1.43,0.76
C6,1,0.98,0.9
SLC25A42,1,0.91,0.75
NNT,1,0.86,0.64
LGALS2,1,0.81,0.57
RBP3,1,1.08,0.64
NHERF1,1,1.06,0.82
PLEKHA5,1,1.04,0.47
DHDDS,1,0.93,0.92
TJP1,1,1.06,1.06
SFT2D2,1,0.92,0.83
RETREG1,1,0.85,0.67
SELENOP,1,1.22,0.94
CHD9,1,1.19,0.96
SAMD9L,1,1.01,0.97
PDGFC,1,1.16,1.14
TEX13B,1,1.21,0.92
SLC47A1,1,1.01,0.7
TSC22D1,1,1.09,0.7
ZNF711,1,0.81,0.6
SMPX,1,1.22,1.04
INIP,1,0.93,0.64
PPP1R16B,1,1.44,0.92
SEMA4A,1,1.23,0.74
TMEM187,1,1.39,0.53
NOXO1,1,1.05,0.9
ASS1,1,1.09,1.05
HP,1,1.14,0.64
HTR7,1,0.72,0.68
HRH3,1,0.73,0.76
ITIH3,1,0.95,0.8
PTPRM,1,1.32,0.87
CDC42BPA,1,0.97,0.66
NDUFB2,1,0.97,0.9
ST6GALNAC5,1,1.01,1.08
ILF2,1,1.09,0.86
TREX1,1,0.95,0.7
CCDC191,1,1.18,0.8
PARK7,1,0.71,0.52
BET1,1,1,0.72

Copied from the list.
For “CDH1-null / parental viability ratio”, FRMD1 shows 1.43
Value for NCOA2 under “CDH1-null viability vs mock (fraction of mock)”: 0.9
Under “CDH1-null viability vs mock (fraction of mock)”, SAMD9L shows 0.97
PLOD1, CDH1-null / parental viability ratio → 1.06
For “CDH1-null viability vs mock (fraction of mock)”, ZNF711 has 0.6
CDC42BPA, CDH1-null viability vs mock (fraction of mock) = 0.66
